According to PubChem BioAssay AID540256 (National Center for Advancing Translational Sciences (NCATS), 2011):
In all, about 300,000 compounds went through this assay and about 3,700 (1.2%) were called active. The inconclusive results got no clear call from the source; some entries with a clear call stand among them for comparison. Calls come from the whole dose curve; tested in HEK293 cells. Where the call is inconclusive, the potency comes from a doubtful curve fit.

Assay: qHTS for Inhibitors of binding or entry into cells for Lassa Virus; note: nearly all actives have a fitted effect of over 50% in size
Details: Lassa virus pseudotype entry inhibition, cell reporter; series mostly up to 37.9 µM
Potency is the fitted concentration of half-maximal effect.

Row | SMILES | Potency
1 | COCCN1C(=O)C(=O)/C(=C(/O)c2ccc(S(=O)(=O)N3CCOCC3)cc2)C1c1ccc(O)cc1 (stereo not given) | inconclusive: 12.6 µM [activator, partial curve]
2 | CCOC(=O)Cn1nnnc1C(C(C)C)N(Cc1cc2c(C)cc(C)cc2[nH]c1=O)C1CCCC1 (stereo not given) | inconclusive: 11.2 µM [inhibitor, partial curve]
3 | CN(c1ccccc1)S(=O)(=O)c1ccc(Cl)c(C(=O)OCC(N)=O)c1 | inactive
4 | Cc1ccc2c(c1)c(=O)c1ccccc1n2CCCC(=O)Nc1c(F)cccc1F | inactive
5 | COc1ccc(Cl)cc1N(CC(=O)NC1CC2CCC1C2)S(=O)(=O)c1ccccc1 (stereo not given) | inconclusive: 17.8 µM [inhibitor, single point]
6 | Cc1ccc(S(=O)(=O)N2CCC(C(=O)NCCCN3CCOCC3)CC2)cc1 | inconclusive: 1.26 µM [inhibitor, single point]
7 | COCCn1c(SCc2cccnc2)nnc1-c1ccco1 | inconclusive: 0.411 µM [activator, partial curve, poor fit]
8 | N/C(=N\c1nc2ccccc2o1)NC(=O)c1ccccc1 | inactive
9 | Cc1nc(CS(=O)(=O)c2ccccc2)cc(Sc2ccc(Cl)cc2)n1 | inactive
10 | CC(=O)Nc1nc(-c2ccc3ccccc3c2)cs1 | inconclusive: 15.8 µM [inhibitor, single point]
11 | O=C(Nc1cccc(S(=O)(=O)Nc2ccc(Cl)cc2)c1)c1ccc(Cl)nc1 | inconclusive: 3.26 µM [inhibitor, partial curve]
12 | COc1cc(NC(=O)c2c(C)oc3ncnc(N4CCCCC4)c23)cc(OC)c1 | inconclusive: 35.5 µM [activator, single point]
13 | Cc1nn(CC(C)C)c(Cl)c1C(=O)N(c1ccc(Cl)cc1F)S(C)(=O)=O | inconclusive: 35.5 µM [inhibitor, single point]
14 | NS(=O)(=O)c1ccc2c(c1)C1C=CCC1C(C1CC=CCC1)N2 (stereo not given) | inactive
15 | CCOC(=O)CC1C(=O)NCCN1c1nc2c(C)cccn2c(=O)c1/C=C1\SC(=S)N(C(C)CC)C1=O (stereo not given) | active: 6.31 µM
16 | CN(CC(=O)Nc1ccccc1-c1ccccc1)Cc1ccccc1Cl | inactive
17 | O=C(CSc1ccc2nnc(-c3ccccn3)n2n1)Nc1ccccc1C(F)(F)F | inactive
18 | CCOC(=O)c1nnc2c(-c3ccc(Cl)cc3)c(C)nn2c1C | inactive
19 | Cc1nc(NCc2cccnc2)c2c3c(sc2n1)CCCC3 | inactive
20 | O=C(NCC(c1ccccc1)c1ccccc1)c1nn(-c2ccccc2F)nc1CO | inconclusive: 5.62 µM [inhibitor, single point]
21 | Oc1c(CN2CCN(c3ccccn3)CC2)cc(Cl)c2cccnc12 | active: 12.6 µM
22 | COc1cc(OC)c2nc(C)c3c(c2c1)N(c1ccc(O)cc1)CC3 | inconclusive: 25.1 µM [inhibitor, single point]
23 | Cc1ccc(C(=O)COC(=O)CCC(=O)Nc2ccc(Oc3cc(C)ccc3C(C)C)cc2)cc1 | inactive
24 | Cc1ccc(OC(=O)CSc2nnc(CNC(=O)c3ccccc3)o2)cc1 | inactive

Grouped by structure, the entries above with an aryl thioether with sulfur outside any ring
Row | SMILES | Potency
7 | COCCn1c(SCc2cccnc2)nnc1-c1ccco1 | inconclusive: 0.411 µM [activator, partial curve, poor fit]
9 | Cc1nc(CS(=O)(=O)c2ccccc2)cc(Sc2ccc(Cl)cc2)n1 | inactive
17 | O=C(CSc1ccc2nnc(-c3ccccn3)n2n1)Nc1ccccc1C(F)(F)F | inactive
24 | Cc1ccc(OC(=O)CSc2nnc(CNC(=O)c3ccccc3)o2)cc1 | inactive

(continued)

Row | SMILES | Potency
25 | Cc1ccc(S(=O)(=O)N2CCOC23CCN(S(=O)(=O)c2cccs2)CC3)cc1 | inconclusive: 17.8 µM [inhibitor, partial curve, poor fit]
26 | CC(=O)N1CCCc2cc(S(=O)(=O)N3CCCC(C(=O)N4CCN(c5cc(C)ccc5C)CC4)C3)ccc21 (stereo not given) | active: 5.62 µM
27 | CC(=O)Nc1ccc(NC(=O)CSc2nncn2C)cc1 | inactive
28 | Cc1ccc2nc(NCCCN3CCOCC3)c(C=NCCCN3CCOCC3)c(=O)n2c1 | inactive
29 | O=C1O/C(=C\C(=O)N2CCOCC2)c2ccccc21 | inactive
30 | COc1cccc(C2=NNC(=NCc3ccccc3)SC2)c1 | inconclusive: 15.8 µM [inhibitor, single point]
31 | CCOc1cc(/C=N/Nc2nc(-c3cccs3)c(NC(C)=O)s2)ccc1O | inconclusive: 2.82 µM [activator, single point]
32 | O=C(c1cc(S(=O)(=O)N2CCCCC2)ccc1F)N1CCCCC1 | inactive
33 | CC1=C(C)CS(=O)N(S(=O)(=O)c2ccc(Cl)cc2)C1 (stereo not given) | inconclusive: 25.1 µM [inhibitor, single point]
34 | COc1ccccc1C(=O)NC(=O)COC(=O)C1CC2CCCC(C1)C2=O (stereo not given) | inactive
35 | Cc1cc(Cl)ccc1OCCCC(=O)N1CCN(S(=O)(=O)c2ccccc2)CC1 | inconclusive: 2.82 µM [inhibitor, single point]
36 | CCc1ccc(CN2CCC(Oc3ccc(C(=O)NCc4ccccn4)cc3)CC2)o1 | inconclusive: 35.5 µM [inhibitor, single point]
37 | O=C(NCc1ccco1)/C(=C/c1ccc(C(F)(F)F)cc1)c1nc2ccccc2[nH]1 | inconclusive: 29.1 µM [activator, single point]
38 | Cc1ccc(NC(=O)c2c(C)oc3ccc(O)c(CN4CCCCC4)c23)c(C)c1 | inactive
39 | O=C(C1CCCN(c2ncnc3c2nc2n3CCCCC2)C1)N1CCN(c2ccc(Cl)cc2)CC1 (stereo not given) | inconclusive: 10 µM [inhibitor, partial curve, poor fit]
40 | COc1cc(C2c3cc4c(cc3C(O)C3COCC23)OCO4)cc(OC)c1OC (stereo not given) | inactive
41 | O=C(c1ccc2c(c1)OCO2)N1CCN(c2ccccc2F)CC1 | inconclusive: 11.2 µM [activator, single point]
42 | O=C(Nc1nc(-c2cc(Cl)sc2Cl)cs1)c1ccc(Br)s1 | inconclusive: 20.6 µM [inhibitor, single point]
43 | COc1cc(C(=O)N/N=C/C2CC=CCC2)cc(OC)c1OC (stereo not given) | inconclusive: 1.46 µM [inhibitor, full curve]
44 | CC(C)C[C@@H]1NC(=O)[C@H](Cc2ccc(O)cc2)NC(=O)c2cc([N+](=O)[O-])cc(I)c2NCCC[C@@H](C(N)=O)NC1=O | inactive
45 | NS(=O)(=O)c1ccc(NC(=O)CSC2CCCCC2)cc1 | inactive
46 | Cc1ccc(NC(=O)Cn2c(=O)oc3cc(S(=O)(=O)N4CCCCCC4)ccc32)cc1Cl | inconclusive: 35.5 µM [inhibitor, single point]
47 | Nc1cc(S(=O)(=O)N2CCCCC2)ccc1Oc1ccccc1 | inconclusive: 32.6 µM [inhibitor, single point]
48 | O=C(COc1ccccc1F)Nc1cc(S(=O)(=O)N2CCOCC2)ccc1N1CCOCC1 | inconclusive: 35.5 µM [inhibitor, single point]

Molecules shown so far that have a CF3 group, in the order listed:
Row | SMILES | Potency
17 | O=C(CSc1ccc2nnc(-c3ccccn3)n2n1)Nc1ccccc1C(F)(F)F | inactive
37 | O=C(NCc1ccco1)/C(=C/c1ccc(C(F)(F)F)cc1)c1nc2ccccc2[nH]1 | inconclusive: 29.1 µM [activator, single point]

Later entries

Row | SMILES | Potency
49 | Cc1ccccc1-n1c(-c2ccco2)nc2ccccc2c1=O | inactive
50 | CCOC(=O)C1=NN(C(C)=O)C2(CC(=O)N(c3cc(C)cc(C)c3)C2=O)C1 (stereo not given) | inactive
51 | CCOc1ccc(N/C=C/C(=O)c2ccc(C)cc2)c([N+](=O)[O-])c1 | inconclusive: 3.55 µM [inhibitor, single point]
52 | O=C(N1CCCCC1)N1CCN(c2ccc(Cl)cc2)CC1 | inconclusive: 8.91 µM [inhibitor, partial curve, poor fit]
53 | COc1ccc(CCC(=O)NCCc2csc(-c3ccc(Cl)cc3)n2)cc1 | inconclusive: 7.94 µM [inhibitor, partial curve]
54 | CC1CCN(C(=O)CN2C(=O)c3ccccc3S2(=O)=O)CC1 | active: 7.94 µM
55 | Cc1ccc(-c2ccc(CN3C(C(C)C)C(=O)N(Cc4cn(CC5CCCCC5)nn4)CCS3(=O)=O)cc2)cc1 (stereo not given) | inconclusive: 0.0031 µM [inhibitor, full curve, poor fit]
56 | CN1C(=O)C2(SCC(=O)N2c2ccc(F)cc2)c2ccccc21 (stereo not given) | inconclusive: 1.41 µM [activator, partial curve, poor fit]
57 | NC1=CC(=O)C(=O)c2ccccc21 | inconclusive: 35.5 µM [inhibitor, single point]
58 | Cc1cc(C)cc(OCC(=O)Nc2ccc(CN3CCCCC3)cc2)c1 | inactive
59 | CCCCOc1ccc(-c2c(C(=O)Nc3ccccc3)c(C)[nH]c(=S)c2C#N)cc1 | inconclusive: 10 µM [inhibitor, partial curve, poor fit]
60 | CC(=O)N1CCc2cc(CNS(=O)(=O)c3ccc(Cl)s3)ccc21 | inconclusive: 3.98 µM [inhibitor, full curve, poor fit]
61 | O=C(NCc1ccc2c(c1)OCO2)c1cc2n(n1)C(C(F)(F)F)CC(c1ccc3c(c1)OCO3)N2 (stereo not given) | inconclusive: 2.31 µM [inhibitor, single point]
62 | COc1ccc(CSc2nnc3[nH]c(=O)cc(N)n23)cc1 | inactive
63 | CC(=O)c1sc(-c2ccccc2)cc1N | inconclusive: 2.82 µM [inhibitor, single point]
64 | O=C(NCCC(c1ccccc1)c1ccccc1)c1cccs1 | inconclusive: 20.6 µM [inhibitor, single point]
65 | CCOc1ccc(-n2cc(C(=O)NCc3ccco3)c3cc(OC)c(OC)cc3c2=O)cc1 | inconclusive: 7.94 µM [inhibitor, partial curve]
66 | CC1=N/C(=C\c2ccc(OC(C)C)cc2)C(=O)N1c1ccc(C(=O)O)cc1 | inconclusive: 13 µM [inhibitor, partial curve, poor fit]
67 | CCC(=O)N1CCc2cc(Br)cc(S(=O)(=O)CCC(=O)N(CC)Cc3ccccc3)c21 | inactive
68 | CCC(C)(C)C1CCc2[nH]nc(C(=O)N/N=C(\C)c3ccco3)c2C1 (stereo not given) | inconclusive: 12.6 µM [inhibitor, partial curve, poor fit]
69 | O=C(NCc1ccco1)C1OCCc2ccccc21 (stereo not given) | inactive
70 | CCOCCCNC(=O)C(c1ccc(Cl)cc1)N(Cc1cccs1)C(=O)c1ccc(NC(C)=O)cc1 (stereo not given) | inconclusive: 35.5 µM [inhibitor, single point]
